Results deposited as PubChem BioAssay AID1259327 (Drosophila RNAi Screening Center, 2017)

Aim: 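Knock-downs altering cellular ATP with no metal added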
Cell system: Drosophila S2R+ cells
Knock-down reagent: long dsRNA against Drosophila genes
Timing: 5 days (water added on day 4, read one day later)
Treatment: water added as vehicle, no metal, one day before read-out
Measured: 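Luciferase ATP signal per well, normalised to plate mean, duplicate average converted to z-score across plates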
Reading the numbers: ATP z-score: higher = more total ATP than typical wells; ATP luminescence: higher = more total ATP
Active means: 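Called active when the ATP z-score exceeds 1.5 or falls below -1.5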
Calls: active = hit: ATP up or down; inactive = no clear ATP change
This is one part, drawn at random, of about 3,100 reagents. 378 of them (12%) were called active. 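Hits include both directions; z-score sign shows ATP rise or fall; raw luminescence values are not plate-normalised.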 Unmarked entries are inactive. Names joined by + are all predicted targets of the reagent. No sequences are given here. The record does not give: the amount of reagent.

no.	Target gene	dsRNA	ATP z-score, duplicate mean	ATP luminescence, replicate 1 (RLU)	ATP luminescence, replicate 2 (RLU)
1	Orct2 (Organic cation transporter 2)	DRSC14613	0.85	8.23e5	7.64e5
2	Orct2 (Organic cation transporter 2)	DRSC24714	1.65 (active)	7.49e5	8.37e5
3	Oatp58Dc (Organic anion transporting polypeptide 58Dc)	DRSC04363	0.356	6.85e5	8.56e5
4	Oatp58Dc (Organic anion transporting polypeptide 58Dc)	DRSC39686	0.218	4.44e5	5.17e5
5	Lrch (Leucine-rich-repeats and calponin homology domain protein)	DRSC02996	-0.0714	4.42e5	5.08e5
6	Lrch (Leucine-rich-repeats and calponin homology domain protein)	DRSC29145	-0.461	8.34e5	7.06e5
7	CG15890	DRSC19737	-0.298	8.15e5	7.19e5
8	Gr64b + Gr64c	DRSC08444	-0.2	9.14e5	8.28e5
9	Gr64b + Gr64c	DRSC08445	0.745	1.01e6	9.75e5
10	Gr64b + Gr64c	DRSC27568	-0.913	8.60e5	9.86e5
11	CG9760	DRSC11101	-1.74 (active)	7.03e5	6.34e5
12	CG9760	DRSC28846	1.24	1.09e6	8.61e5
13	Gr9a (Gustatory receptor 9a)	DRSC22506	0.491	9.56e5	8.66e5
14	Gr9a (Gustatory receptor 9a)	DRSC39581	-0.212	4.28e5	4.75e5
15	CG6231	DRSC15997	-0.356	2.83e5	7.23e5
16	CG14053	DRSC17908	0.242	6.49e5	7.23e5
17	CG14053	DRSC39512	0.243	4.50e5	4.86e5
18	Ir85a (Ionotropic receptor 85a)	DRSC14382	1.93 (active)	3.73e5	1.01e6
19	Ir85a (Ionotropic receptor 85a)	DRSC29077	-0.88	7.75e5	6.64e5
20	CG3216	DRSC04347	-0.214	7.13e5	6.94e5
21	CG3216	DRSC24945	0.288	8.80e5	8.37e5
22	Tsp66A + CG42660 + CG42661	DRSC10233	0.158	9.22e5	9.11e5
23	Oct-TyrR (Octopamine-Tyramine receptor)	DRSC11883	0.264	9.69e5	8.93e5
24	Oct-TyrR (Octopamine-Tyramine receptor)	DRSC39865	1.7 (active)	6.95e5	7.67e5
25	Nha2 (Na[+]/H[+] hydrogen antiporter 2)	DRSC14689	-1.01	2.72e5	6.05e5
26	Nha2 (Na[+]/H[+] hydrogen antiporter 2)	DRSC15623	-1.01	6.22e5	6.44e5
27	PIG-Wb (Phosphatidylinositol glycan anchor biosynthesis class W b)	DRSC08526	1.52 (active)	7.64e5	7.49e5
28	Sur-8	DRSC15794	-0.11	3.06e5	7.19e5
29	galene	DRSC08640	-0.569	5.87e5	5.49e5
30	galene	DRSC08641	0.043	7.57e5	7.36e5
31	Sec22 (Secretory 22)	DRSC29297	-1.7 (active)	5.39e5	6.91e5
32	Sec22 (Secretory 22)	DRSC39605	-0.847	3.88e5	4.28e5
33	CG13409	DRSC14585	-0.194	2.99e5	7.18e5
34	CG13409	DRSC39736	-0.829	3.75e5	4.44e5
35	sut1 (sugar transporter 1)	DRSC07700	0.507	7.97e5	7.73e5
36	CG13869 + CG11099	DRSC24218	-0.12	9.03e5	1.00e6
37	Indy (I'm not dead yet)	DRSC10393	0.71	8.28e5	7.85e5
38	CG5342	DRSC15776	0.517	3.31e5	7.95e5
39	Mgtor (Megator)	DRSC05958	0.339	7.91e5	7.43e5
40	Mgtor (Megator)	DRSC39824	-1.74 (active)	3.66e5	3.47e5
41	Ykt6 (YKT6 v-SNARE)	DRSC26017	0.0703	8.42e5	8.76e5
42	CG17600	DRSC20640	0.982	7.82e5	9.21e5
43	CG17600	DRSC22753	0.457	5.99e5	6.38e5
44	CG17600	DRSC27203	-0.886	9.49e5	1.06e6
45	Octbeta1R (Octopamine beta1 receptor)	DRSC16134	-0.321	2.68e5	7.69e5
46	Octbeta1R (Octopamine beta1 receptor)	DRSC30030	-0.246	6.12e5	5.05e5
